The results in this text go back to PubChem BioAssay AID2685 (National Center for Advancing Translational Sciences (NCATS), 2010).

This assay in a line: qHTS Assay for Lipid Storage Modulators in Drosophila S3 Cells.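 On cell number change: cells counted by Cell Tracker Red CMTPX staining in the red channel.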 As to conditions: BODIPY lipid droplet fluorescence, 18-24 h; for cell number change: measured here: cell count max response, cells fed with added oleic acid. The gist of the method: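 Drosophila S3 cells loaded with oleic acid (400 uM, as added) and compounds at several concentrations; lipid droplets imaged by 488-nm laser-scanning cytometry, 500–530 nm intensity and object ratio to cell channel. Percent activity normalized to 20 uM Triacsin C.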
For orientation: In qHTS, concentration-response curves come from the screen itself.

The mark [1] stands for this setting: measured here: cell number channel AC50, cells fed with added oleic acid.
[2] abbreviates: measured here: lipid fluorescence (Fed channel) AC50, cells fed with added oleic acid.

Each structure is given as a SMILES string. The list shows a part of the results. Shown are side measurements of this screen, not its main read-out; they come without a call. The list favours compounds with an active or inconclusive main result. Potencies come from curve fits of mixed quality, noted in brackets.

Usually AC50 stands for the midpoint of the concentration-response curve, whichever way the signal moves. On to `COc1ccc(C(=O)CSc2nnc(Cn3nnc4ccccc43)n2C)cc1`, for which the cell number change was 71.1%. Besides, the AC50 under setting [1] was 20.6 µM [rising, single point].

With `Cc1cc2cc(C#N)c(SCC(=O)Nc3nonc3C)nc2cc1C`, the cell number change worked out at 181%. Besides, the AC50 under setting [1] is 18.4 µM [rising, partial curve].

As for `CCN1CCN(c2cc(C)c3cc(NC(=S)N4CCN(c5ccccc5F)CC4)ccc3n2)CC1`, the cell number change came to 30.3%.

On to `N#CCCN(Cc1ccccc1)C(=S)Nc1ccccc1`, for which the cell number change is -34%. Moreover, the AC50 under setting [1] is 16.4 µM [falling, single point]. Further, the AC50 under setting [2] was 0.461 µM [rising, partial curve, poor fit].

`Cc1cc(C(=O)N/N=C/c2cc([N+](=O)[O-])ccc2O)c2ccccc2n1`: the cell number change was -2.9%. For the same compound, the AC50 under setting [2] is 0.13 µM [rising, full curve, poor fit].

In the case of `O=C(CSc1nc2cc(Cl)ccc2c(=O)n1Cc1ccco1)Nc1ccc(S(=O)(=O)N2CCOCC2)cc1`, the cell number change is -9.36%. Further, the AC50 under setting [2] is 0.517 µM [falling, single point].

As for `COc1cc(SC)ccc1C(=O)N(C)CC(=O)Nc1cccc2ccccc12`, the cell number change turned out to be 1.82%. The half-maximal activity concentration (AC50) under setting [2] was 0.00461 µM [rising, full curve, poor fit].

Regarding `O=C(CCn1c(=O)c2ccccc2n(Cc2ccccc2)c1=O)NCc1ccc2c(c1)OCO2`, the AC50 by setting is: under setting [1], 2.31 µM [rising, partial curve]; under setting [2], 2.59 µM [rising, partial curve].

As for `CCCN1CCN(CCCNC(=O)CN2C(=O)COc3ccccc32)CC1`, the cell number change was -160%. For the same compound, the AC50 under setting [2] is 29.1 µM [falling, single point].

`CC1CCc2c(sc(/N=C/N(C)C)c2C#N)C1` (stereo not given): the cell number change came out at 44.5%. For the same compound, under setting [1], the AC50 is 23.1 µM [rising, single point]. Also, the AC50 under setting [2] was 16.4 µM [rising, partial curve].

Consider `CNC(=O)CCn1nc(-c2ccc(C)cc2)c2ccccc2c1=O`, for which the cell number change worked out at 5.56%. Besides, the AC50 under setting [2] is 3.66 µM [falling, partial curve].

As for `CCOC(=O)C(C)n1nc(C)c2sc3ccccc3c2c1=O` (stereo not given), the cell number change was -30.9%. Further, the AC50 under setting [1] is 1.84 µM [falling, full curve, poor fit]. Moreover, the AC50 under setting [2] is 1.84 µM [falling, full curve, poor fit].

Regarding `COc1ccc(CN2CCNC(=O)C2CC(=O)N(C)CC2CCOCC2)c(F)c1` (stereo not given), the cell number change amounted to 5.42%. Moreover, under setting [2], the AC50 was 29.1 µM [rising, single point].

For `CCCNC(=O)Cn1cnc2sc(C(=O)Nc3ccc4c(c3)OCO4)c(C)c2c1=O`, the cell number change came out at 36.2%. For the same compound, under setting [1], the AC50 is 20.6 µM [rising, single point].

Take `COc1ccccc1NC(=S)N(Cc1ccco1)Cc1cc2ccc(C)c(C)c2[nH]c1=O`: the cell number change was determined as 5.71%. Further, the AC50 under setting [2] was 13 µM [rising, partial curve].

`CC(C)(C)C1CCC(C(=O)Nc2nccs2)CC1` (stereo not given): the cell number change is -24.2%. In addition, under setting [2], the AC50 was 29.1 µM [rising, single point].

`Cc1cccc(C(=O)OCC(=O)NC(=O)c2ccccc2)c1O`: the cell number change was -12%. Besides, the AC50 under setting [2] was 2.06 µM [falling, partial curve].

Consider `O=C(CC12CC3CC(CC(C3)C1)C2)N1CCCOC1`, for which the cell number change was -0.255%. In addition, the AC50 under setting [2] is 0.92 µM [falling, full curve].

With `CCCN1CCN(CCCNC(=O)c2ccc(CS(=O)c3ccccc3C)o2)CC1` (stereo not given), the cell number change was 17.7%. Also, the AC50 under setting [1] was 2.31 µM [rising, partial curve]. For the same compound, the AC50 under setting [2] was 4.11 µM [falling, single point].

As to `CCOC(=O)c1cccc(NC(=O)CSc2nnc(-c3ccoc3C)n2CCOC)c1`, the cell number change was 243%. The concentration at half-maximal activity (AC50) under setting [1] was 25.9 µM [rising, partial curve].

In the case of `COc1ccc(C(=S)N2CCOCC2)cc1OC(=O)c1cc([N+](=O)[O-])c(C)c([N+](=O)[O-])c1`, the cell number change is -76.5%. Also, the AC50 under setting [1] is 32.6 µM [falling, partial curve]. Also, the AC50 under setting [2] is 25.9 µM [falling, partial curve].

Regarding `CC1CCC(NC(=O)CN(C)S(=O)(=O)c2ccc3c(c2)CCC(=O)N3)CC1` (stereo not given), the cell number change is -39.5%. Also, the AC50 under setting [1] was 29.1 µM [falling, single point].

Regarding `CCc1ccccc1NC(=O)C1CCCN(c2nn3c(=O)cc(C)nc3s2)C1` (stereo not given), the cell number change was determined as 0.576%. In addition, the AC50 under setting [2] is 23.1 µM [falling, single point].

As to `CN(CC(=O)Nc1ccc(Cl)c(S(=O)(=O)N2CCOCC2)c1)C(=O)c1ccc(C#N)cc1`, the cell number change is -34.5%. Under setting [1], the AC50 is 25.9 µM [falling, partial curve]. For the same compound, the AC50 under setting [2] was 1.03 µM [falling, full curve, poor fit].

Regarding `O=[N+]([O-])c1ccccc1S(=O)(=O)NC1CC2CCC1C2` (stereo not given), the cell number change was -13%. Further, the AC50 under setting [2] was 23.1 µM [falling, partial curve, poor fit].

Take `Cc1[nH]n(-c2ccccc2)c(=S)c1C=Nc1ccc([N+](=O)[O-])cc1`: the cell number change was -83%. Further, the AC50 under setting [1] is 25.9 µM [falling, partial curve].

In the case of `COc1ccc(C(=O)/C=C/C(=O)N(CC(=O)NC2CCCCC2)Cc2ccccc2)c(O)c1`, the cell number change is -39.7%. Besides, the AC50 under setting [1] was 2.59 µM [falling, full curve]. Also, the AC50 under setting [2] is 4.11 µM [falling, full curve].

`N#Cc1ccccc1Sc1ccccc1C(=O)OCC(=O)NC12CC3CC(CC(C3)C1)C2`: the cell number change is 26.6%. In addition, under setting [2], the AC50 was 4.61 µM [falling, partial curve].

On to `CC(C)c1ccc(CC(NC(=O)c2ccccc2)C(=O)NCC(=O)O)cc1` (stereo not given), for which the cell number change is -61%.

On to `Cc1cccc(NC(=S)NNC(=O)c2ccc3c(c2)OCO3)c1`, for which the cell number change was 3.62%. The AC50 under setting [2] is 0.0731 µM [rising, full curve, poor fit].

As to `O=C(Nc1cccc(-c2cccc(F)c2)c1)C1CCN(C2CCOCC2)CC1`, the AC50 under setting [2] is 0.58 µM [falling, single point].

On to `COc1ccc(CSCC(=O)N/N=C/c2ccccc2O)cc1`, for which the cell number change is -45.6%. For the same compound, the AC50 under setting [2] is 29.1 µM [falling, single point].

On to `CC(=O)Nc1ccc(OC(F)(F)C(F)F)c(NC(C)=O)c1`, for which the cell number change was -1.13%. Also, the AC50 under setting [2] was 6.51 µM [falling, single point].

With `CCOc1ccccc1Nc1nnc(SCC(=O)Nc2ccc3[nH]c(=O)[nH]c3c2)s1`, the cell number change was found to be 16.6%. The AC50 under setting [2] is 18.4 µM [rising, partial curve, poor fit].

Regarding `Cc1cc(C)nc(SCC(=O)Nc2ccc(S(=O)(=O)NCCO)cc2)n1`, the cell number change is 15.8%.

As to `O=C(CSc1nnc(CNc2ccc(F)cc2)o1)N1CCN(C(=O)c2ccco2)CC1`, the cell number change is 13%. Further, under setting [2], the AC50 was 5.8 µM [rising, partial curve, poor fit].
